Results are given in words; binding and its absence hold for the method and conditions named. In cells and extracts the contact can be indirect. These calls come from enrichment with a bait or labelling near it, and not all partners need be listed. No binding means not detected with the bait.

Experimental findings from paper PMC3409120 are described below.

The target of this assay is Schistosoma japonicum Argonaute protein Ago2 (native SjAgo2) (S. japonicum (endogenous in adult worms)). As to the kind of experiment: affinity purification with mass spectrometry; native SjAgo2 captured from SWAP by mAb 27A9, 10% SDS-PAGE, bands excised, Orbitrap MS; second assay with sequential mock beads, normal mouse IgG and 27A9.

B1: paramyosin (PMY) (protein, UniProt Q05870 1-866)
chain: MMNHDTESHVKISRTIYRGVSPSTTRLESRVRELEDILDLERDARVRAERHAADLSYQVDALSERLDEAGGSTTQTQELLKRREMEINKLRKDLENANASLELAETSMRRRHQTALNELSLEVENLQKQKGKAEKDKSHLIMEVDNVLGQLDGALKAKQSAESKLEGLDSQLNRLKTLTDDLQRQLTELNNAKSRLTSENFELLHINQDYEAQILNYSKAKSSLESQVDDLKRSLDDESRNRFNLQAQLTSLQMDYDNLQAKYDEESEEASNLRNQVSKFNADIAALKSKFERELMSKTEEFEEMKRKLTMRITELEDVAERERLKAVSLEKLKTKLTLEIKDLQSEIESLSLENGELIRRAKSAESLASELQRRVDELTIEVNTLTSQNNQLESENMRLKSLVNDLTDKNNALERENRQMNDQVKELKSSLRDANRRLTDLEALRSQLEAERDNLASALHDAEEALRDMDQKYQASQAALNHLKSEMEQRLRERDEELESLRKSTTRTIEELTVTITEMEVKYKSELSRLKKRYESSIADLEIQLDATNKANANLMKENKNLAQRVKDLETFLDDERRLREAAENNLQITEHKRIQLANEVEELRSAMENLERLRKHAETELEETQSRVSELTIQVNTLSNDKRRLEGDIGVMQADMDDAINAKQAAEDRATRLNNEVLRLADELRQEQENYKHAEALRKQLEIEIREITVKLEEAEAFATREGRRMVQKLQARVRELEAEFDGESRRCKDALAQARKFERQYKELQTQAEDDRRMVLELQDLLDKTQMKMKAYKRQLEEMEEVSQITMNKYRKAQQQIEEAEHRADMAERTVTVRRVGPGGRAVSVARELSVTSNRGMRATSMM
B1: the binding result is recorded as “no binding”.
